# Assay results as given in patent US10188659B2, “IGF-1R signaling pathway inhibitors useful in the treatment of neurodegenerative diseases” (YISSUM RESEARCH DEVELOPMENT COMPANY OF THE HEBREW …, priority 2013, dated 2019).
# Tests used:
# [1] = system: wild-type worms (strain N2); experiment: Lifespan analysis, wild-type worms; format: in vivo, Caenorhabditis elegans; settings: strain N2, daily treatment
# [2] = system: CF512 worms; experiment: Lifespan analysis, CF512 worms; format: in vivo, Caenorhabditis elegans; settings: 600 μM
compound,measurement,setting,value
Oc1cc(CNC(=S)/C=C/c2ccc(O)c(O)c2Br)cc(O)c1O [Compound 39],lifespan,[1],indistinguishable from that of their untreated counterparts; also recorded: not affected
same,lifespan,[2],no effect on lifespan; also recorded: indistinguishable lifespans

# “Also recorded” adds a separate entry of the source.
